Results published in publication PMC4358236 (The Journal of Biological Chemistry, 2015).
Results are given in words; binding and its absence hold for the method and conditions named. In cells and extracts the contact can be indirect. Some entries that bind do so weakly or less than the wild type. Sequences can lack the tags named with a protein.

Amino acid sequences for entries named in this document (tags omitted).
UniProt Q85295: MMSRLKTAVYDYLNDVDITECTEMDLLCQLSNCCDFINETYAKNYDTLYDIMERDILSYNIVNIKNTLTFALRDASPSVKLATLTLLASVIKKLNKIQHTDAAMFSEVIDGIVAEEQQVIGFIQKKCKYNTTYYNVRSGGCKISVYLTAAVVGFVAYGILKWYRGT
UniProt Q9Y297: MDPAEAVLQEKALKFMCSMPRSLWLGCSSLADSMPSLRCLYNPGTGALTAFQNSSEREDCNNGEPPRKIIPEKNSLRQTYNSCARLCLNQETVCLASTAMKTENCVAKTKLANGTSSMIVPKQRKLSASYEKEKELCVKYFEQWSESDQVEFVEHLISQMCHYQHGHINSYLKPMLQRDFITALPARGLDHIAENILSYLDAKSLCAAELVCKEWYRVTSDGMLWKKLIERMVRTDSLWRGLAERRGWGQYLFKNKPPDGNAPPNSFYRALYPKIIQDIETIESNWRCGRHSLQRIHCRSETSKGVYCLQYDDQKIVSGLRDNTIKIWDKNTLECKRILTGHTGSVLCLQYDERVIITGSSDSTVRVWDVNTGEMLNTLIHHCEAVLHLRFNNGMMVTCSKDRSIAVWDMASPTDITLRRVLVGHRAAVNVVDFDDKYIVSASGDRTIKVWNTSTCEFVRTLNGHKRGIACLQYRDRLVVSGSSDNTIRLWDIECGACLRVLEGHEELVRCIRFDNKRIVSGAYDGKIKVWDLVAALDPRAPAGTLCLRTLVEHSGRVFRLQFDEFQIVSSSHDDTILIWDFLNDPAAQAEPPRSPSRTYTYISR
UniProt Q07812: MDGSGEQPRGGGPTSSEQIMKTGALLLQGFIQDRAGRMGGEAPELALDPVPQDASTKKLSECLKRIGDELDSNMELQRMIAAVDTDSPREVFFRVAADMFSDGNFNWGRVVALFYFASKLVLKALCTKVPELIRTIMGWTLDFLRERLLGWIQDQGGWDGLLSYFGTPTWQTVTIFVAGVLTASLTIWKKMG

Target: FLAG-tagged myxoma virus protein M11 (myxoma virus) (UniProt Q85295)
Assay: co-IP

| Molecule | binding |
| --- | --- |
| Myc-tagged β-TrCP (from UniProt Q9Y297 1-605) | no binding |
| HA-tagged human Bax (from UniProt Q07812 1-192) | binds |
| HA-tagged human Bak (protein, UniProt Q16611 1-211) MASGQGPGPPRQECGEPALPSASEEQVAQDTEEVFRSYVFYRHQQEQEAEGVAAPADPEMVTLPLQPSSTMGQVGRQLAIIGDDINRRYDSEFQTMLQHLQPTAENAYEYFTKIATSLFESGINWGRVVALLGFGYRLALHVYQHGLTGFLGQVTRFVVDFMLHHCIARWIAQRGGWVAALNLGNGPILNVLVVLGVVLLGQFVVRRFFKS | binds |
